Values of other authors, collected in patent publication US12454572B2, “Methods of treating anemia in myelodysplastic syndromes” (Dana-Farber Cancer Institute, Inc., priority 2021, dated 2025).
Some results were stated once for a whole list of compounds, not compound by compound. At least one compound was matched to its structure with a doubt left.

Tested on: MDS patients
Conditions: existing therapeutics; cited from earlier work

Compound | average window of survival
Nc1cccc2c1CN(C1CCC(=O)NC1=O)C2=O (centres unmarked) [lenalidomide] | 3- to 5 year
Nc1ncn([C@@H]2O[C@H](CO)[C@@H](O)[C@H]2O)c(=O)n1 [azacytidine] | 3- to 5 year
